Source: paper doi:10.1101/2021.10.20.465144
These are yes or no findings as the source states them, for the method shown. In cells and extracts the contact can be indirect. For some assays here: Binding can be weak; no strength is given. For some assays here: Where a sequence is shown, tags or fusion partners need not be part of it.

By UniProt entry, the sequences of proteins in these tests, tags left out.
UniProt Q8TDY2: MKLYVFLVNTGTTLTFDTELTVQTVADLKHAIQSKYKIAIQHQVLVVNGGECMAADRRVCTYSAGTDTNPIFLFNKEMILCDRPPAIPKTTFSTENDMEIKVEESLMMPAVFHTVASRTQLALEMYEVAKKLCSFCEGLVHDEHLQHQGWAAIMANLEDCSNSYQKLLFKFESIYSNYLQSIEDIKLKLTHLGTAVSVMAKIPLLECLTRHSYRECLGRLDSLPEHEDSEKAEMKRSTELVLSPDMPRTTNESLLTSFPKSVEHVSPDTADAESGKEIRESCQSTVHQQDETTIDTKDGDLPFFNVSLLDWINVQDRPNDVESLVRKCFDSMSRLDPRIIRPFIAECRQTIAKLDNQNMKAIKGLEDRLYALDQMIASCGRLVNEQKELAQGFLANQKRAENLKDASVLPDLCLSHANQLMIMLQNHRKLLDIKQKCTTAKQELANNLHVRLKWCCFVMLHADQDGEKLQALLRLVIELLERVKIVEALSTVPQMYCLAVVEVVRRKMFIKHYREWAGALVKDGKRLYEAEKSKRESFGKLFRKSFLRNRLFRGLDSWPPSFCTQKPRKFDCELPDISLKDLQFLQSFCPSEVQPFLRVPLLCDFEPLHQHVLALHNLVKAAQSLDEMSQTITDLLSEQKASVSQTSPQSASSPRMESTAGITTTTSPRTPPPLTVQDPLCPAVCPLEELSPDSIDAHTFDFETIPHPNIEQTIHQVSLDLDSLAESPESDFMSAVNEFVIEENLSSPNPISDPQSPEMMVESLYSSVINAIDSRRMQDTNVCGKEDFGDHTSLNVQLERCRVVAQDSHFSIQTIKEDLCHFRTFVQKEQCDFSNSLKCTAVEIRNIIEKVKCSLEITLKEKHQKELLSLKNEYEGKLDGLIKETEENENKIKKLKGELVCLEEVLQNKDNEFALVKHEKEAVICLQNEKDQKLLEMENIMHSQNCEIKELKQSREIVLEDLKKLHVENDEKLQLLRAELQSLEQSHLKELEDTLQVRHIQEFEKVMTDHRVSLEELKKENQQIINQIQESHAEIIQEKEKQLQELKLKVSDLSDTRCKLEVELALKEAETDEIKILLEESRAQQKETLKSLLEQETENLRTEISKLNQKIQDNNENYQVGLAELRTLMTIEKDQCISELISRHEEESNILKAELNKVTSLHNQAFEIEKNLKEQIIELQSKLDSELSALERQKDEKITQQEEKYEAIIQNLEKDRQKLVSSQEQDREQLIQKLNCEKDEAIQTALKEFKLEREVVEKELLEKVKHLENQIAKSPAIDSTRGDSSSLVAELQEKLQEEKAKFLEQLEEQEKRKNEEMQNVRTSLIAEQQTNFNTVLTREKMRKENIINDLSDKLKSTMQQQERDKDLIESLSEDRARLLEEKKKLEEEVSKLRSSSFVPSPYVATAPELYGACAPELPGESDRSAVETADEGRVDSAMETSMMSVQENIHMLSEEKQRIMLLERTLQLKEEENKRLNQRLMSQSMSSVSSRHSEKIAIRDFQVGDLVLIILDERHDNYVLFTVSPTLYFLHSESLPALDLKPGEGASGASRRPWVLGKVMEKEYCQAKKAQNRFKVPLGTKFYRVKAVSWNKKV

What was measured:
[1] = molecular target: FLAG-QPD-DNAJB12 (DNAJB12 mutant with dominant-negative HSP70 interaction domain) (UniProt Q9NXW2); experiment: co-IP
FLAG-DNAJB12 (WT) = molecular target: T1, FLAG-DNAJB12 (WT) (UniProt Q9NXW2); experiment: co-IP
T1 sequence: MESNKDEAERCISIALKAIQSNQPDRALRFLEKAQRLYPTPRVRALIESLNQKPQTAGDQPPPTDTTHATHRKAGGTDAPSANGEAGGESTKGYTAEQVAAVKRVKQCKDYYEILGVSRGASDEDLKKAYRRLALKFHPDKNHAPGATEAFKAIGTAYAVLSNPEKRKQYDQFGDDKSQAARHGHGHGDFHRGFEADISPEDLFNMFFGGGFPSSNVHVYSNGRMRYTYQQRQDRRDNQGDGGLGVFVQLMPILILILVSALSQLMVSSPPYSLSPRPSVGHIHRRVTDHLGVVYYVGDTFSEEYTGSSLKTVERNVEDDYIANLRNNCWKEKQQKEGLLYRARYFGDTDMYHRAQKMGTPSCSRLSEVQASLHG

Substance	binding [1]	binding (FLAG-DNAJB12 (WT))
FIP200 (focal adhesion kinase family interacting protein of 200 kD) (from UniProt Q8TDY2 1-1594)	binds	–
calnexin (in COS-7 cells)	–	no binding
